According to PubChem BioAssay AID493014 (National Center for Advancing Translational Sciences (NCATS), 2011):
This is one part of the list. Further columns of the screen follow, without active or inactive calls. Compounds called inactive in the main read-out are mostly missing here. Potencies come from curve fits of mixed quality, noted in brackets.

Assay: qHTS Assay to Find Inhibitors of Chronic Active B-Cell Receptor Signaling
Conditions: ABC-DLBCL IkBa-CBG/CBR reporter, luminescence ratio (green luciferase fused to IkBa over red control in TMD8 lymphoma cells), 4 h
Procedure, shortened: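 Doxycycline induced both beetle luciferases in TMD8 lymphoma cells; IKK-driven degradation limits the IkappaBalpha-fused green signal, while red luminescence normalises for cell number and nonspecific effects. Compounds tested up to 46 uM, 4 hrs.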

[1] = measured here: CBR red luminescence, cell number

| Structure (SMILES) | AC50 [1] | AC50 (measured here: IkBa-CBG green luminescence) |
| --- | --- | --- |
| COc1ccc(-n2cc(CNCc3cnc4ccccn34)c(-c3cccc(F)c3)n2)cc1 | 14.1 µM [falling, single point] | 31.6 µM [rising, partial curve, poor fit] |
| O=C(NC12CC3CC(CC(C3)C1)C2)c1ccc(-c2ccc(Br)cc2)o1 | 11.6 µM [rising, partial curve] |  |
| CCOC(=O)CCCc1c[nH]c2ccccc12 | 6.31 µM [rising, single point] |  |
| S=C(Nc1cccc2ccccc12)NC1CCCCC1 | 28.2 µM [rising, single point] |  |
| O=C(NC1CC1)c1cccc(Nc2ccc(-c3ccc4c(c3)OCCO4)nn2)c1 | 3.26 µM [falling, full curve, poor fit] |  |
| Cc1cccc(NC(=S)N(Cc2cccs2)Cc2cc3cc(C)cc(C)c3[nH]c2=O)c1 | 16.4 µM [rising, single point] |  |
| COC(=O)N/N=C/c1sc(N2CCCCC2)nc1-c1cccs1 | 35.5 µM [falling, single point] |  |
| COc1ccc(C)cc1NS(=O)(=O)c1cc(C)ccc1C | 20.6 µM [rising, single point] |  |
| C/C(=N\NC(=O)c1ccc(O)cc1)c1ccc(NC(=O)Cc2ccccc2)cc1 | 0.501 µM [falling, full curve, poor fit] |  |
| Cc1ccc(NC(=O)COC(=O)c2cccc(N3C(=O)c4ccccc4C3=O)c2)cc1 | 8.91 µM [falling, partial curve, poor fit] |  |
| Cc1nc(S/C(=C/c2ccc(-c3ccc(Cl)cc3)o2)C(=O)O)n[nH]1 | 0.116 µM [falling, full curve, poor fit] |  |
| CC1=NN(C(=O)c2cc(C)nn2C)C(O)(C(F)(F)F)C1 (centres undefined) | 29.1 µM [falling, single point] |  |
| CCN(CC)CCNc1nc(-c2ccccc2)c2c(c1C#N)CC(C)(C)OC2 | 6.51 µM [rising, single point] |  |
| CCOC(=S)N/C(=N\S(=O)(=O)c1ccccc1)c1ccccc1 | 5.17 µM [rising, full curve, poor fit] |  |
| COc1ccc(C2CC3(CC(C)(C)NC(=S)N3)Oc3cc(O)cc(C)c32)cc1OC (centres undefined) | 15.8 µM [falling, partial curve] |  |
| O=C(Nc1ccc(S(=O)(=O)N2CCOCC2)cc1)c1ccc(Br)o1 | 4.11 µM [rising, single point] |  |
| CCOc1ccccc1NC(=O)CSc1nnc(-c2cnccn2)n1CC | 20.6 µM [falling, single point] |  |
| CN(C)CCOc1ccccc1-c1ccccc1 | 1.64 µM [rising, partial curve, poor fit] |  |

As a working copy, some entries already given:

| Structure (SMILES) | AC50 [1] | AC50 (measured here: IkBa-CBG green luminescence) |
| --- | --- | --- |
| C/C(=N\NC(=O)c1ccc(O)cc1)c1ccc(NC(=O)Cc2ccccc2)cc1 | 0.501 µM [falling, full curve, poor fit] |  |
| Cc1ccc(NC(=O)COC(=O)c2cccc(N3C(=O)c4ccccc4C3=O)c2)cc1 | 8.91 µM [falling, partial curve, poor fit] |  |
